# Measurements from article PMC5996148.
# Where “and” joins values, the source holds several entries; their conditions need not be identical. Equal entries are not always repeated. The list shows a part of the results.
# Experiments:
# Assay in all cases: protein microarray (ProtoArray v5.0), streptavidin-Alexa Fluor 647
# Conditions in all cases: 3'-biotin; 20 mM Tris (pH 7.5), 5 mM MgCl2, 100 mM KCl, 0.1% Tween-20, A/T-rich and random oligonucleotide blockers; temperature not stated; high values mean tight binding
# [1] = tested on: C14orf130 (human)
# [2] = tested on: C14orf131 (human)
# [3] = tested on: C14orf159 (human)
# [4] = tested on: C14orf24 (human)
# [5] = tested on: C14orf45 (human)
# [6] = tested on: C15orf38 (human)
# [7] = tested on: C15orf41 (human)
# [8] = tested on: C16orf13 (human)
# [9] = tested on: C16orf30 (human)
# [10] = tested on: C16orf74 (human)
sequence,measurement,setting,value
GGGGACAGGGGTATGGGGAGGGG [G4-3 biotinylated (CtG)],binding signal,[1],-0.336 z-score
same,binding signal,[2],-0.313 z-score and -0.335 z-score
same,binding signal,[3],-0.319 z-score
same,binding signal,[4],-0.311 z-score
same,binding signal,[5],-0.326 z-score
same,binding signal,[6],-0.319 z-score
same,binding signal,[7],-0.322 z-score
same,binding signal,[8],-0.32 z-score
same,binding signal,[9],-0.329 z-score
same,binding signal,[10],-0.327 z-score

# A second format for some results above.
sequence | measurement | setting | value
GGGGACAGGGGTATGGGGAGGGG [G4-3 biotinylated (CtG)] | binding signal | [7] | -0.322 z-score
same | binding signal | [8] | -0.32 z-score
